The values below come from the supplement of paper PMC5949888.

Most values lie at the floor of the assay. Slopes are relative: functional sequences can read slightly below zero. A value given as a limit tells only on which side of the number the result lay.

This data set concerns Saccharomyces cerevisiae PS128 hsf1 delta, HSF1(1-493) fusion. The data set is described as follows: growth estimate (transactivation domain function in HSF1 fusion, heat-shock survival) (a.u. (slope of normalised read count over time)); higher = stronger growth at 37°C, i.e. more transactivation activity. Conditions: library: random library.
As to IAIRFDVDRL, the growth estimate is under -0.25.
For SPAAGKPEARVCSGINIRAS, the growth estimate is under -0.25.
To YGCTSLESRG belongs -0.206; to FPGPLGWFFEVSGNYLESCS, under -0.25; to PRGQFISLRSCSA, under -0.25.
The value for WKAFTFSIG was under -0.25; that for RSSTPREGVPGIRNEPMPTV was under -0.25.
To LTYEPEQCHCRVICQMCNLS belongs under -0.25; to RLIAFGGSLGDES, under -0.25.
As for ARMVAVMERA, the growth estimate was under -0.25.
Regarding SEVSIPISNQLCRRTRQNAG, the growth estimate was under -0.25.
In the case of LHARLCQAGEVNVCLFIKSY, the growth estimate is under -0.25.
The value for VAVI was under -0.25.
For VSTRVKLTARACIPCVLLT, the growth estimate is under -0.25.
The value for RPMGIKVAMGDWTHTGPPW was under -0.25.
The value for SPRLRSRPGGVQNGGQFRGI was under -0.25; that for TMVSV was under -0.25.
To LYFLRRLGYGYCGTRESLDR belongs under -0.25.
With PMR, the growth estimate is -0.174.
With LCFYGRSLSEVSLC, the growth estimate is under -0.25.
The value for LLNLGKVTH was under -0.25; that for LRNGLL was under -0.25.
The value for GSIPFAAGIRHHPFRNEGMV was under -0.25.
The value for ESSRMVDSEGLLRPRFGFRC was under -0.25; that for LSIVNPKQDGVWPRLRRSDS was under -0.25.
For the substance AVIQL, the growth estimate was -0.198.
To TVQASGPAIQVVSENAELNQ belongs under -0.25.
To GHPEHLEYFE belongs under -0.25; to ISCEQGKPKASSCTLGVAVV, under -0.25.
The value for LFEQTSSHLIHSTSKCGE was under -0.25.
Regarding HFTRVIALILARVLA, the growth estimate was under -0.25.
As for FSSRAWPRSTCLTGATNLLA, the growth estimate was under -0.25.
Regarding RGGWVLTRRTCAVMCVFLSI, the growth estimate is 1.05.
The value for EACIDSTGRGRT was under -0.25; that for SLAPGKPRVVNHRTRLMFLA was under -0.25.
The value for LLSRASEGADSSSSLRGATS was under -0.25; that for YNSGCRVY was under -0.25; that for CQAHD was under -0.25.
As to PNF, the growth estimate was under -0.25.
The value for PSELEGLTDTSTHNTLEITS was under -0.25; that for HSRLFLIGTLFGRT was under -0.25; that for PAKSMSSSVPKSFDYAERYC was under -0.25.
The value for EGVCGLR was under -0.25.
To SYYIQIFN belongs under -0.25.
In the case of TRKLPRGYVGRVSQARLPT, the growth estimate is under -0.25.
The value for DRSALRVCRRSVPEPRLG was under -0.25; that for DERSIGGTIQPQLSLLNGG was under -0.25; that for TRHSAGPCVDRDLPGESKRG was under -0.25.
To NVFRLGRQRRQLRLYKTQ belongs under -0.25.
The value for YLSGPGPYGFRIILQRGRPP was under -0.25.
RCSGR: the growth estimate was under -0.25.
The value for KLIG was -0.231; that for RDQANPDLQGKLLS was under -0.25; that for DVIRDTV was under -0.25.
To KRQIIYWLRYPVHQFKSLSC belongs under -0.25; to ALLFSQMFSSLTVSRTTRII, under -0.25.
The value for QKGKQGLSMVSQKVNEEVSE was under -0.25; that for RVNAGQPLHGRGSWPYFTPR was -0.198.
As for CYASSTFNKQQVLRLPTGA, the growth estimate was under -0.25.
As for LLSVCNLSRPGVREA, the growth estimate was under -0.25.
The value for WIAQYCILCRAPL was under -0.25; that for HGSEPGWDPPRRGLITGSGC was under -0.25.
With ATRNNSGLRRQSAVGRVLTD, the growth estimate is under -0.25.
The value for LSQD was under -0.25.
The value for CWVGLSWASK was under -0.25.
To EGELLESSFTSSLKLAVSRQ belongs -0.25; to ALL, under -0.25; to VLLHGSECPVP, under -0.25.
As to LLWRRVVLRWGRCSQQKART, the growth estimate is under -0.25.
To RRTLFVLFSHDIGAITRKCS belongs under -0.25; to VLIEDTTPRPGTDGNDPPPQ, under -0.25; to GRYRVNTSCGG, under -0.25.
Take LITADLALICVMCLLVGREG: the growth estimate was under -0.25.
To CQRYLDFMSKMRVHSSTSSS belongs -0.25.
To NGKLG belongs under -0.25; to PWKQGMEMCREWSQLMP, under -0.25.
The value for PKLQERYDFGYEVSMEGAS was under -0.25; that for HTCRRLGGGRASKPAIL was under -0.25.
As for PVVCYG, the growth estimate is under -0.25.
